In article doi:10.1101/2025.04.01.645927:
These are yes or no findings as the source states them, for the method shown. Binding seen in cells or lysates may run through a third protein. Some entries that bind do so weakly or less than the wild type. Values belong to the binder of their own block, whether it stands above or below them.

Key:
[1] = target: T1, VE-cadherin (human (endogenous in hMVECs)), P33151; test: co-IP; details: remark: other sources report otherwise
T1 chain: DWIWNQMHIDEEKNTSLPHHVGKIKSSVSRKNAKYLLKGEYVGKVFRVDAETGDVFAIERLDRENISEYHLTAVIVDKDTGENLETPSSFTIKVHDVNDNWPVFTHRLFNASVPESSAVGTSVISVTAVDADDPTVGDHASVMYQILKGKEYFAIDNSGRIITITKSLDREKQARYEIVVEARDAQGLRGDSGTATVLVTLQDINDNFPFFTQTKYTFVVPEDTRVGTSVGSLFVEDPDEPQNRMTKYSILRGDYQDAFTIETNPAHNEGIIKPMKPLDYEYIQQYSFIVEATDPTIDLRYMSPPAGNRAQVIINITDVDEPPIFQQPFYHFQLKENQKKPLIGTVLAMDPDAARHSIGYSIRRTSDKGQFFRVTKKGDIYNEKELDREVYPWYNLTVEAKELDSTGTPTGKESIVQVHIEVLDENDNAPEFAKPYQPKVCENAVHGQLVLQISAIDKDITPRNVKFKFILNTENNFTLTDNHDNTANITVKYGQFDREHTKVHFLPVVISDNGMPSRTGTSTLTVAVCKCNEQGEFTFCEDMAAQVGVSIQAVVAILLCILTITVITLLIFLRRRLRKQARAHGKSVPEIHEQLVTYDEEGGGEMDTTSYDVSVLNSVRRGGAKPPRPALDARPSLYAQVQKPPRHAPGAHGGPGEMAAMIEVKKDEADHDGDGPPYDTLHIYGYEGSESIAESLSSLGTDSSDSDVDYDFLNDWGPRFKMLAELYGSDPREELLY

[2] = target: T2, VE-cadherin (human (endogenous in hMVECs)) (UniProt P33151); test: co-IP
T2 sequence: T1 chain

- binding [1]: binds
B1: β-catenin, P35222 1-781 (protein)
chain: MATQADLMELDMAMEPDRKAAVSHWQQQSYLDSGIHSGATTTAPSLSGKGNPEEEDVDTSQVLYEWEQGFSQSFTQEQVADIDGQYAMTRAQRVRAAMFPETLDEGMQIPSTQFDAAHPTNVQRLAEPSQMLKHAVVNLINYQDDAELATRAIPELTKLLNDEDQVVVNKAAVMVHQLSKKEASRHAIMRSPQMVSAIVRTMQNTNDVETARCTAGTLHNLSHHREGLLAIFKSGGIPALVKMLGSPVDSVLFYAITTLHNLLLHQEGAKMAVRLAGGLQKMVALLNKTNVKFLAITTDCLQILAYGNQESKLIILASGGPQALVNIMRTYTYEKLLWTTSRVLKVLSVCSSNKPAIVEAGGMQALGLHLTDPSQRLVQNCLWTLRNLSDAATKQEGMEGLLGTLVQLLGSDDINVVTCAAGILSNLTCNNYKNKMMVCQVGGIEALVRTVLRAGDREDITEPAICALRHLTSRHQEAEMAQNAVRLHYGLPVVVKLLHPPSHWPLIKATVGLIRNLALCPANHAPLREQGAIPRLVQLLVRAHQDTQRRTSMGGTQQQFVEGVRMEEIVEGCTGALHILARDVHNRIVIRGLNTIPLFVQLLYSPIENIQRVAAGVLCELAQDKEAAEAIEAEGATAPLTELLHSRNEGVATYAAAVLFRMSEDKPQDYKKRLSVELTSSLFRTEPMAWNETADLGLDIGAQGEPLGYRQDDPSYRSFHSGGYGQDALGMDPMMEHEMGGHHPGADYPVDGLPDLGHAQDLMDGLPPGDSNQLAWFDTDL

- binding [2]: binds
B2: p120 catenin (protein, UniProt O60716 1-968)
chain: MDDSEVESTASILASVKEQEAQFEKLTRALEEERRHVSAQLERVRVSPQDANPLMANGTLTRRHQNGRFVGDADLERQKFSDLKLNGPQDHSHLLYSTIPRMQEPGQIVETYTEEDPEGAMSVVSVETSDDGTTRRTETTVKKVVKTVTTRTVQPVAMGPDGLPVDASSVSNNYIQTLGRDFRKNGNGGPGPYVGQAGTATLPRNFHYPPDGYSRHYEDGYPGGSDNYGSLSRVTRIEERYRPSMEGYRAPSRQDVYGPQPQVRVGGSSVDLHRFHPEPYGLEDDQRSMGYDDLDYGMMSDYGTARRTGTPSDPRRRLRSYEDMIGEEVPSDQYYWAPLAQHERGSLASLDSLRKGGPPPPNWRQPELPEVIAMLGFRLDAVKSNAAAYLQHLCYRNDKVKTDVRKLKGIPVLVGLLDHPKKEVHLGACGALKNISFGRDQDNKIAIKNCDGVPALVRLLRKARDMDLTEVITGTLWNLSSHDSIKMEIVDHALHALTDEVIIPHSGWEREPNEDCKPRHIEWESVLTNTAGCLRNVSSERSEARRKLRECDGLVDALIFIVQAEIGQKDSDSKLVENCVCLLRNLSYQVHREIPQAERYQEAAPNVANNTGPHAASCFGAKKGKDEWFSRGKKPIEDPANDTVDFPKRTSPARGYELLFQPEVVRIYISLLKESKTPAILEASAGAIQNLCAGRWTYGRYIRSALRQEKALSAIADLLTNEHERVVKAASGALRNLAVDARNKELIGKHAIPNLVKNLPGGQQNSSWNFSEDTVISILNTINEVIAENLEAAKKLRETQGIEKLVLINKSGNRSEKEVRAAALVLQTIWGYKELRKPLEKEGWKKSDFQVNLNNASRSQSSHSYDDSTLPLIDRNQKSDKKPDREEIQMSNMGSNTKSLDNNYSTPNERGDHNRTLDRSGDLGDMEPLKGTTPLMQDEGQESLEEELDVLVLDDEGGQVSYPSMQKI
